The other results are listed elsewhere or left out.
Compound: COc1ccc(Cn2ccc3cc(C)c(C(=O)NO)cc32)cc1
Experiment: dose-dependent thermal stabilisation call (2D-TPP, DLPTP, 10% FDR) (binary (1 = stabilised)); higher = stabilised by the compound
Conditions: system: HL-60 intact cells; concentration range 0.04-10 µM
Method: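 2D thermal proteome profiling in intact HL-60 cells treated with BRD-3811 (0, 0.04, 0.29, 2, 10 uM) for 90 min at 37 C, then heated 3 min at one of 12 temperatures (42-63.9 C). Soluble protein was quantified by TMT10 MS. The value is the DLPTP call of the paper: dose-dependent thermal stabilisation over all temperatures at 10% FDR (F-test of a dose-response against a flat model); one experiment, one call per tested protein.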

The chains behind the UniProt entries cited, without tags or fusion partners. Where a name states a change or a piece, a line headed by the entry shows the natural chain unless it says otherwise.
UniProt Q8WW12: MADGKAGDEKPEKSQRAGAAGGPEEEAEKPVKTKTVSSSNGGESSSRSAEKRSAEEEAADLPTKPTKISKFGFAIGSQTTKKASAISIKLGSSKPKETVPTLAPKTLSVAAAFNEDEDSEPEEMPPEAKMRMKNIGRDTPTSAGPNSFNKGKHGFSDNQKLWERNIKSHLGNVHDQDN
UniProt O00628: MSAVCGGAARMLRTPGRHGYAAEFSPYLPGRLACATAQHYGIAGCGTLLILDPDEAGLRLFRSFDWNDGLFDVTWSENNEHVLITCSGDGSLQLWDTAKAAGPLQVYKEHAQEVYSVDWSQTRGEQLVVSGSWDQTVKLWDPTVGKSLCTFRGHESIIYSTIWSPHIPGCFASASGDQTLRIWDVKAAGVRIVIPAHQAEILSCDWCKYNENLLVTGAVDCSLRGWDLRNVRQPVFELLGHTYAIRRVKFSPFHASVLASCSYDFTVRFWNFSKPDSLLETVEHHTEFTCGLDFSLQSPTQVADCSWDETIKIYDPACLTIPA
UniProt P16885: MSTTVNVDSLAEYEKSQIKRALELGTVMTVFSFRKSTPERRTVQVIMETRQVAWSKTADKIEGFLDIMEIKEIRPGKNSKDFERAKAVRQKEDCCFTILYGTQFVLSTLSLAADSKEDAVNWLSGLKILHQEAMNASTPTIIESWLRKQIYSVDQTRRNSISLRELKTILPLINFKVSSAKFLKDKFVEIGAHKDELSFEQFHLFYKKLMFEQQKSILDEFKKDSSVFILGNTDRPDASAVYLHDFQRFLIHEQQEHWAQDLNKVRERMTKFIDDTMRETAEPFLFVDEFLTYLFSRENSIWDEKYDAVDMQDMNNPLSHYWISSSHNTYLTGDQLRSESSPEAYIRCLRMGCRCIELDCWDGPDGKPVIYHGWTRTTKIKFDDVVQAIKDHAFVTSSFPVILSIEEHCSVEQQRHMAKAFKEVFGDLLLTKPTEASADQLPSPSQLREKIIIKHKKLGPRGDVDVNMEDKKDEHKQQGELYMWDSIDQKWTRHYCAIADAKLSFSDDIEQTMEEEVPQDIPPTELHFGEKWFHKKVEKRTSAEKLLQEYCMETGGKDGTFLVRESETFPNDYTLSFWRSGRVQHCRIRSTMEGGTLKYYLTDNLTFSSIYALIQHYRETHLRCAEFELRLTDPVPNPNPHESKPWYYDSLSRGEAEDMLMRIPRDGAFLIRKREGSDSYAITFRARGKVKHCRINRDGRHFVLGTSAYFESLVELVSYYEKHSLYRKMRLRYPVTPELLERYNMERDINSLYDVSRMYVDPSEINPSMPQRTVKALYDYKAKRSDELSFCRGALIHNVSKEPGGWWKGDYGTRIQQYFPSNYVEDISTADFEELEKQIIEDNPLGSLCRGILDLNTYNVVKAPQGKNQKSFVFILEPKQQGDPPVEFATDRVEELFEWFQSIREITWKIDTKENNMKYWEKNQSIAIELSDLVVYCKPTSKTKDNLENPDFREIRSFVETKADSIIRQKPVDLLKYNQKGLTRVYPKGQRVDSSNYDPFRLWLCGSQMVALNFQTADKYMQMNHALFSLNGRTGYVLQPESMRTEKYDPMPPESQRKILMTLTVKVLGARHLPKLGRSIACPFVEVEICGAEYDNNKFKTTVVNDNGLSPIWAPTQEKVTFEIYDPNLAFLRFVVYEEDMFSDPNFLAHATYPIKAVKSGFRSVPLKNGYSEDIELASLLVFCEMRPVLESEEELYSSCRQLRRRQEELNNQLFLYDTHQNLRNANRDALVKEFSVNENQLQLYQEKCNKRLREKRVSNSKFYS
UniProt Q96RG2: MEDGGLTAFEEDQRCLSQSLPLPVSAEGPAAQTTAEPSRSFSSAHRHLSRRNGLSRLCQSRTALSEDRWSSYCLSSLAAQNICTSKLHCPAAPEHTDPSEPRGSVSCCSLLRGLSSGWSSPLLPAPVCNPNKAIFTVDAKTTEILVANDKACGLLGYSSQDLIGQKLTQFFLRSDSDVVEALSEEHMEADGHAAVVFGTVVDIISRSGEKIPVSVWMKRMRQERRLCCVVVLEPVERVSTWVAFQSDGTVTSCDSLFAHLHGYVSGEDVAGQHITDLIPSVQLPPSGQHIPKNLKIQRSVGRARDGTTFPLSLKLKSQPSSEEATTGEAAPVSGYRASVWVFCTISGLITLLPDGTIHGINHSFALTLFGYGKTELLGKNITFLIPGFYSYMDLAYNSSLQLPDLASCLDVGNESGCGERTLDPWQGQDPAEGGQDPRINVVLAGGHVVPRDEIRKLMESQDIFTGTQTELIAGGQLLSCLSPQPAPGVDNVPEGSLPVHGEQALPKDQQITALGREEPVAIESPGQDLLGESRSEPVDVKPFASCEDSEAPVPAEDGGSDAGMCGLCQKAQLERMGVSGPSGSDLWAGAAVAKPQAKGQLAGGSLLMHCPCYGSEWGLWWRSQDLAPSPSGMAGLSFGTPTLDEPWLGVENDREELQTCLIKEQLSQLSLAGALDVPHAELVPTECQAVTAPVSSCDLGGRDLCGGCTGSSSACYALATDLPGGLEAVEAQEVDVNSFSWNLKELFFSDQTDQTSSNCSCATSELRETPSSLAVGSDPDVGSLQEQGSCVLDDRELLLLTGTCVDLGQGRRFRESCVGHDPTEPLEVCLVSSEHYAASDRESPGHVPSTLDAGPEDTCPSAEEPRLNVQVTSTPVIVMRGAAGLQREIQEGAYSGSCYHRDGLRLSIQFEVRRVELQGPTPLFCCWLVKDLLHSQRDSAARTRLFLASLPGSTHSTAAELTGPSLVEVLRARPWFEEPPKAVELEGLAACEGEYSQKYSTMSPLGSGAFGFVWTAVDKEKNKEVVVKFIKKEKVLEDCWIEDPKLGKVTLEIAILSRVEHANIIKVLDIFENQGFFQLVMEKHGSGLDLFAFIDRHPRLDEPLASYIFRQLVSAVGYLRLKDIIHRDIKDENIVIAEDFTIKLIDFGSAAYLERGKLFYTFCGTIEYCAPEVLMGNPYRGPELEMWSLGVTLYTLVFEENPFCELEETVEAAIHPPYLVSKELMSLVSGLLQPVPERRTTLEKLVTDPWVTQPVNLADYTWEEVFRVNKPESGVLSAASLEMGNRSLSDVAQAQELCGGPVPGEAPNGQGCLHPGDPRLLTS
UniProt Q6PK18: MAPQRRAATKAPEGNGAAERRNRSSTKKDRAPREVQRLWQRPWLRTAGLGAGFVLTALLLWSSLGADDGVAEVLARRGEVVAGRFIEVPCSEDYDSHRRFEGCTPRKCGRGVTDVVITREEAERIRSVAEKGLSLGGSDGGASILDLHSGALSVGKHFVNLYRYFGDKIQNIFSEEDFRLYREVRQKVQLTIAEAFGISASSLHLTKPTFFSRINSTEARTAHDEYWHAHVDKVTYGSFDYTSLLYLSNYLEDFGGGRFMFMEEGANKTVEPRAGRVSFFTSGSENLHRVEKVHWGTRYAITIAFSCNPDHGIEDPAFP
UniProt Q6L8Q7: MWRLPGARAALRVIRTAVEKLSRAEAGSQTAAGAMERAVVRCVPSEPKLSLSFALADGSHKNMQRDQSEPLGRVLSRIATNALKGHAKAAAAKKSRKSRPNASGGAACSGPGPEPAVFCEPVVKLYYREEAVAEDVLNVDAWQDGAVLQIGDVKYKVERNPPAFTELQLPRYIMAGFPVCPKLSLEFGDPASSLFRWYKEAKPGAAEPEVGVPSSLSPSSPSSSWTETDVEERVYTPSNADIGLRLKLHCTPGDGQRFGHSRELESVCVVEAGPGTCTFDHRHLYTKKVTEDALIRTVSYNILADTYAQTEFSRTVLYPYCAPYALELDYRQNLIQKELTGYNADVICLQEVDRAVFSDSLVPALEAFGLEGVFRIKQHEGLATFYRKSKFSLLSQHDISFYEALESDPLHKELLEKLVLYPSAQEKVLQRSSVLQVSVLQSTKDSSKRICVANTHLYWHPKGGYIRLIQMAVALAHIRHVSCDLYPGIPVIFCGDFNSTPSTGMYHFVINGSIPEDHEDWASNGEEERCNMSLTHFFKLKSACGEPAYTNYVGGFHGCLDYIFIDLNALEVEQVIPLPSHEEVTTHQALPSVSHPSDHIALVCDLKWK
UniProt P46019: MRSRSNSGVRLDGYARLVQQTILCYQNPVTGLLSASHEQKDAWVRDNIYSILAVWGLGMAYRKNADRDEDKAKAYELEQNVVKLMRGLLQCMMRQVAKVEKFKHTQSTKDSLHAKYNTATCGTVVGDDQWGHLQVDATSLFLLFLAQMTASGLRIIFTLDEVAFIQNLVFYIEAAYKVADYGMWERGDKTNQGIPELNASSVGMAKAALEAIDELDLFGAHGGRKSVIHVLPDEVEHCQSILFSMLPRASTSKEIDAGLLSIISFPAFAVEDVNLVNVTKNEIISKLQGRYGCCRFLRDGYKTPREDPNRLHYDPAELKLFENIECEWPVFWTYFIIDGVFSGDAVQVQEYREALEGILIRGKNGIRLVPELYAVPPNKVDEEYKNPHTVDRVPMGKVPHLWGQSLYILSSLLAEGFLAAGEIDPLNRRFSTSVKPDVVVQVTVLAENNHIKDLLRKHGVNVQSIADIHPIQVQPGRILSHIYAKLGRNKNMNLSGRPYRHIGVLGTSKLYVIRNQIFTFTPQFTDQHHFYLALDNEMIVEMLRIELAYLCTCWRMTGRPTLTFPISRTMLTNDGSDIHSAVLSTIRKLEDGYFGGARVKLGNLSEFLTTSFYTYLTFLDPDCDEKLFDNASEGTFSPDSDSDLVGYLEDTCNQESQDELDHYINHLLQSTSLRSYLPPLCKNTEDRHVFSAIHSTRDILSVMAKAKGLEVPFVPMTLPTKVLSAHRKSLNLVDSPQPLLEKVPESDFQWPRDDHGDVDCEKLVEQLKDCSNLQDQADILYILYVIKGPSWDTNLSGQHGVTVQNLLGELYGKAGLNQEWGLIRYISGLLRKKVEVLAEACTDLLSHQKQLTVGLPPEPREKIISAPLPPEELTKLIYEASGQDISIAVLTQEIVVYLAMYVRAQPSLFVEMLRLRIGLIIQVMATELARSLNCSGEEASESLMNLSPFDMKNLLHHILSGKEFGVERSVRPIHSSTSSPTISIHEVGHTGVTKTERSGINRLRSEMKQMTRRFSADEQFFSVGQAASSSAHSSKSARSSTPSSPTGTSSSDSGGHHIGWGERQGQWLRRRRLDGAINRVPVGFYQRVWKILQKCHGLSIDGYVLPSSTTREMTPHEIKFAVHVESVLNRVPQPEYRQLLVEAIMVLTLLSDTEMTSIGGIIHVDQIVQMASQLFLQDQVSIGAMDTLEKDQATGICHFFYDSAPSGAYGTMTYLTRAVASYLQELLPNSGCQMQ
UniProt O00562: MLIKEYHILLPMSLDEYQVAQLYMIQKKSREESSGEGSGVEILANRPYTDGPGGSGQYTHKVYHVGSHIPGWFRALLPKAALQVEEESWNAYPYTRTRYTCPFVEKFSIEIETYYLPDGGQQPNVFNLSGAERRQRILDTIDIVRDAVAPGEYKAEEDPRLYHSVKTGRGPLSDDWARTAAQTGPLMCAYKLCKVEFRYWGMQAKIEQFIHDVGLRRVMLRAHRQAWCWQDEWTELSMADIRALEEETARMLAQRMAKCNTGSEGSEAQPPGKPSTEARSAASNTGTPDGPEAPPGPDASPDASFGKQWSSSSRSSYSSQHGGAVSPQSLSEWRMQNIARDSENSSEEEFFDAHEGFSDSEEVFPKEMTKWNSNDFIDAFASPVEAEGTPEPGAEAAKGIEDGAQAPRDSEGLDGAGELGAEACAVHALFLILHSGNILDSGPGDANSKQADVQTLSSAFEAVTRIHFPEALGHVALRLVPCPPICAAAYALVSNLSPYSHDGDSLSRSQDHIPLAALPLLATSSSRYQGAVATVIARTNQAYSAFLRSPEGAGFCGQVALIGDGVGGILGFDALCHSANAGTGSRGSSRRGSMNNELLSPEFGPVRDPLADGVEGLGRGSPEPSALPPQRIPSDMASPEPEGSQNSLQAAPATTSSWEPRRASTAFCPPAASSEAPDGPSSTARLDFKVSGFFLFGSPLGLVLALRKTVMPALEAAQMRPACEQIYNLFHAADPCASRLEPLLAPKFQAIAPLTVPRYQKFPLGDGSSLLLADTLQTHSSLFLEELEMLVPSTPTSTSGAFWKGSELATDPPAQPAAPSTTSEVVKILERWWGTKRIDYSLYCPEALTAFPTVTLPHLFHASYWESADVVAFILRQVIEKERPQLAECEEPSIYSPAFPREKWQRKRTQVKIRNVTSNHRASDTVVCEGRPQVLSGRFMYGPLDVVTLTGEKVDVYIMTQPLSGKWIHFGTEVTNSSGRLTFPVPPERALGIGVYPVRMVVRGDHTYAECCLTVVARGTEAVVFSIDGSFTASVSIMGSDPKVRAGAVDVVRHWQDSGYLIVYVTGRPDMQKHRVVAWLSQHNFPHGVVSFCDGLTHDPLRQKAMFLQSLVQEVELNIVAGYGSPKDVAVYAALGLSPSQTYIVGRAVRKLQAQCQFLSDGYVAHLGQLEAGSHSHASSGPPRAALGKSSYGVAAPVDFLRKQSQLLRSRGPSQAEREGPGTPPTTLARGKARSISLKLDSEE

| Target | dose-dependent thermal stabilisation call |
| --- | --- |
| PLCG1 (UniProt P19174) | inactive: 0 |
| PDCD11 (UniProt Q14690) | inactive: 0 |
| PACSIN3 (UniProt Q9UKS6) | inactive: 0 |
| PEF1 (UniProt Q9UBV8) | inactive: 0 |
| ORAI1 (UniProt Q96D31) | inactive: 0 |
| PIAS2 (UniProt O75928) | inactive: 0 |
| P2RY11 (UniProt Q96G91) | inactive: 0 |
| P4HA1 (UniProt P13674) | inactive: 0 |
| PELP1 (UniProt Q8IZL8) | inactive: 0 |
| PEG10 (UniProt Q86TG7) | inactive: 0 |
| PAN2 (UniProt Q504Q3) | inactive: 0 |
| PET112L (UniProt O75879) | inactive: 0 |
| PCNP (UniProt Q8WW12) | inactive: 0 |
| PHF14 (UniProt O94880) | inactive: 0 |
| PDLIM2 (UniProt Q96JY6) | inactive: 0 |
| PACS2 (UniProt Q86VP3) | inactive: 0 |
| PAXIP1 (UniProt Q6ZW49) | inactive: 0 |
| PBRM1 (UniProt Q86U86) | inactive: 0 |
| PLS1 (UniProt Q14651) | inactive: 0 |
| PEX7 (UniProt O00628) | inactive: 0 |

| Target | dose-dependent thermal stabilisation call |
| --- | --- |
| PGM3 (UniProt O95394) | inactive: 0 |
| PLCG2 (UniProt P16885) | inactive: 0 |
| PDIA6 (UniProt Q15084) | inactive: 0 |
| PASK (UniProt Q96RG2) | inactive: 0 |
| PEX10 (UniProt O60683) | inactive: 0 |
| PGS1 (UniProt Q32NB8) | inactive: 0 |
| PEX19 (UniProt P40855) | inactive: 0 |
| OGFOD3 (UniProt Q6PK18) | inactive: 0 |
| OXR1 (UniProt Q8N573) | inactive: 0 |
| PDE12 (UniProt Q6L8Q7) | inactive: 0 |
| PHKA2 (UniProt P46019) | inactive: 0 |
| PIK3C3 (UniProt Q8NEB9) | inactive: 0 |
| OTUD4 (UniProt Q01804) | inactive: 0 |
| PFKL (UniProt P17858) | inactive: 0 |
| PLA2G15 (UniProt Q8NCC3) | inactive: 0 |
| PIP5K1C (UniProt O60331) | inactive: 0 |
| PFKP (UniProt Q01813) | inactive: 0 |
| PITPNM1 (UniProt O00562) | inactive: 0 |
| PLA2G4A (UniProt P47712) | inactive: 0 |
| PIGM (UniProt Q9H3S5) | inactive: 0 |

Single entries from the list.
dose-dependent thermal stabilisation call with PLA2G4A (UniProt P47712) reads inactive: 0
dose-dependent thermal stabilisation call with PHKA2 (UniProt P46019) reads inactive: 0
dose-dependent thermal stabilisation call with OGFOD3 (UniProt Q6PK18) reads inactive: 0

From the supplement of paper PMC7666118
